Over roughly 33,000 sequences, “E-score (-0.5 to 0.5)” has its median near -0.0059; the highest 2% begin near 0.26. This is one part of the list.
The sequences below were run against T1, Cin5 (UniProt P40917) (assay: PBM E-score (8-mer binding enrichment) (E-score (-0.5 to 0.5)); higher = stronger / more preferred TF binding). Settings: protein concentration: 100 nM; construct: GST-full length.
T1 sequence: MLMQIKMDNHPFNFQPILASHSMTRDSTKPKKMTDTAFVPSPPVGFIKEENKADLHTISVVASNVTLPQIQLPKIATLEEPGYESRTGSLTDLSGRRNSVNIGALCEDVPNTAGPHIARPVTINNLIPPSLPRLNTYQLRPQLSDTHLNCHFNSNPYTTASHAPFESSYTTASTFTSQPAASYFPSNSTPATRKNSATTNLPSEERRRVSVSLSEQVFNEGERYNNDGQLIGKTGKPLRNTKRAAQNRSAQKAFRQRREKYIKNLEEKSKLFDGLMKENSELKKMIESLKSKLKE
In short: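 E-scores (a modified Wilcoxon-Mann-Whitney statistic) were assigned by the Universal PBM Analysis Suite to every ungapped eight-base word pooled with its reverse complement. The input came from universal all-10-mer Agilent arrays made double-stranded by primer extension and probed with GST-tagged yeast transcription factors at about 100-200 nM. Fluorescent anti-GST detected bound protein, and masliner normalised the scans.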
With CGACTGTA the “PBM E-score” value was -0.176. ACACCGGC was tested, and the “PBM E-score” value was -0.113. For TATCCTAA, the “PBM E-score” value was 0.0208. For AAGCAGTC, the “PBM E-score” value was 0.0177. In the case of CTTCACTA, the “PBM E-score” value is reported as 0.0658. ACCGAGGA was tested, and the “PBM E-score” value was -0.111. With ACGCTAGA the “PBM E-score” value was -0.0965. For TAGTGCCA, the “PBM E-score” value was -0.143. In the case of TAAAGATA, the “PBM E-score” value is reported as 0.171. For GGGTGCAA, the “PBM E-score” value was 0.117. In the case of GGGAAAGA, the “PBM E-score” value is reported as -0.124. GTCAATGA was tested, and the “PBM E-score” value was 0.115. ACTGAGCT was tested, and the “PBM E-score” value was -0.0801. In the case of CTGAGATA, the “PBM E-score” value is reported as 0.0496. In the case of AAAGACTT, the “PBM E-score” value is reported as -0.292. In the case of CAAGGCGC, the “PBM E-score” value is reported as -0.179. In the case of AAAATGCG, the “PBM E-score” value is reported as -0.0174. For AGTCGTCC, the “PBM E-score” value was -0.121. With ACTGCCAC the “PBM E-score” value was -0.012. AAGCATAC was tested, and the “PBM E-score” value was 0.114. For GGAGCATA, the “PBM E-score” value was 0.0966. For GTTTTCAA, the “PBM E-score” value was 0.146. CACCGTTC was tested, and the “PBM E-score” value was -0.0132. For CCGCCACG, the “PBM E-score” value was -0.222. With ACTATGGG the “PBM E-score” value was -0.0453. For ACTTGGTC, the “PBM E-score” value was 0.101. For ATCATGGC, the “PBM E-score” value was 0.0952. With ACATGTCG the “PBM E-score” value was 0.0755. In the case of GGCGCTGA, the “PBM E-score” value is reported as 0.0107. AATCGTTA was tested, and the “PBM E-score” value was 0.0448. ATATGCCC was tested, and the “PBM E-score” value was -0.087. TCCACGGA was tested, and the “PBM E-score” value was 0.198. In the case of ATGCCAGG, the “PBM E-score” value is reported as -0.104. ATAGGAAG was tested, and the “PBM E-score” value was 0.0698. AGGAACTA was tested, and the “PBM E-score” value was 0.0267. With CGTGATCA the “PBM E-score” value was 0.154. In the case of CTATCATC, the “PBM E-score” value is reported as -0.0686. With ACTGAGGG the “PBM E-score” value was -0.211. With CGGTCCAA the “PBM E-score” value was -0.26. ATAAAGCA was tested, and the “PBM E-score” value was 0.0862. In the case of ATATCAAG, the “PBM E-score” value is reported as 0.246. CATACAGG was tested, and the “PBM E-score” value was -0.114. In the case of CCCCTGAG, the “PBM E-score” value is reported as -0.102. For AGATGTAA, the “PBM E-score” value was 0.169. For AAACTTAG, the “PBM E-score” value was -0.00442. With ATCTGCCC the “PBM E-score” value was -0.0664. With TCGATACA the “PBM E-score” value was 0.226. In the case of TTCGCGAA, the “PBM E-score” value is reported as 0.227. In the case of CATAGATA, the “PBM E-score” value is reported as 0.183. For CGGAAAGC, the “PBM E-score” value was 0.16. With CCAAGTGA the “PBM E-score” value was 0.00582. ATCGCACC was tested, and the “PBM E-score” value was -0.0935. In the case of AAGGTTCC, the “PBM E-score” value is reported as -0.0349. For GGCGTACC, the “PBM E-score” value was -0.0778. CCGATAAC was tested, and the “PBM E-score” value was 0.0223. With ACAGTGAT the “PBM E-score” value was 0.174. With ATTAGGAG the “PBM E-score” value was 0.0343. ATGGAAGC was tested, and the “PBM E-score” value was 0.00206. CAGACATC was tested, and the “PBM E-score” value was -0.00699. In the case of AATGCGGG, the “PBM E-score” value is reported as 0.273. For GGCGGTAA, the “PBM E-score” value was 0.0493. GTTTTGAA was tested, and the “PBM E-score” value was 0.0635. CCAGGAGA was tested, and the “PBM E-score” value was -0.119. CATGGAGA was tested, and the “PBM E-score” value was 0.0291. In the case of GGATCGCA, the “PBM E-score” value is reported as 0.0218. For CCCCTAAA, the “PBM E-score” value was -0.192. CCTGATAA was tested, and the “PBM E-score” value was 0.0215. With TACTTTGA the “PBM E-score” value was 0.0811. In the case of TAACGGTA, the “PBM E-score” value is reported as 0.0738. In the case of GGGTCCGA, the “PBM E-score” value is reported as -0.221. With CCTAACAA the “PBM E-score” value was 0.095. CATCGCTC was tested, and the “PBM E-score” value was -0.152. For CAGGCTGC, the “PBM E-score” value was -0.175. With GTATTAAA the “PBM E-score” value was 0.149. With TAGGTAGA the “PBM E-score” value was 0.0877. AAGTAAAG was tested, and the “PBM E-score” value was 0.011. For ATTCCCAG, the “PBM E-score” value was 0.0992. CCTTCAAA was tested, and the “PBM E-score” value was -0.0128. In the case of GTACTCAC, the “PBM E-score” value is reported as 0.13. For TTGTCAAA, the “PBM E-score” value was -0.0051. In the case of CTGGCGAC, the “PBM E-score” value is reported as -0.162. With AACCGTCA the “PBM E-score” value was -0.0787. For AACCTTCG, the “PBM E-score” value was 0.0239. CGTCTCTA was tested, and the “PBM E-score” value was -0.21. For GCAAATAA, the “PBM E-score” value was 0.144. For ATATGCTA, the “PBM E-score” value was 0.152. With CCTCCCAA the “PBM E-score” value was -0.0527. GAACTAGA was tested, and the “PBM E-score” value was -0.00859. ACGCTGCT was tested, and the “PBM E-score” value was -0.0727. In the case of CAAATTGC, the “PBM E-score” value is reported as 0.133. In the case of GGAGGAGA, the “PBM E-score” value is reported as -0.152. CTTGAATA was tested, and the “PBM E-score” value was 0.0347. With GCTTCTAC the “PBM E-score” value was -0.127. For AGCAATGG, the “PBM E-score” value was -0.0829. In the case of AGGACAGA, the “PBM E-score” value is reported as 0.0352. In the case of ATGGTGAG, the “PBM E-score” value is reported as 0.00846. GACCAGTC was tested, and the “PBM E-score” value was -0.195. For CCGGTGAC, the “PBM E-score” value was -0.234. ACTAGCAC was tested, and the “PBM E-score” value was -0.0242. For AGTTGTAA, the “PBM E-score” value was 0.11. In the case of ATTTTATA, the “PBM E-score” value is reported as 0.272. For CTCCGATA, the “PBM E-score” value was -0.0279. With CGCGGGAA the “PBM E-score” value was 0.0964. GTGAGTTA was tested, and the “PBM E-score” value was 0.0327. For AGTGATGA, the “PBM E-score” value was 0.0434. With AGTATTAA the “PBM E-score” value was 0.242. CTCGCAAG was tested, and the “PBM E-score” value was -0.00586. For ACCCAGGC, the “PBM E-score” value was -0.154. For CCGCCGAA, the “PBM E-score” value was 0.0209. With CAACTGAA the “PBM E-score” value was 0.055. ATGGGGCA was tested, and the “PBM E-score” value was 0.0318. With GGAGATCA the “PBM E-score” value was 0.114. For AAGACATA, the “PBM E-score” value was 0.172. CTCGGGGA was tested, and the “PBM E-score” value was -0.0346. For AACAAGTC, the “PBM E-score” value was 0.0146. In the case of CTCCAGAA, the “PBM E-score” value is reported as -0.191. In the case of ACATCTAT, the “PBM E-score” value is reported as 0.218. With AGCACCCC the “PBM E-score” value was -0.0702. GGACATAA was tested, and the “PBM E-score” value was 0.08. With CCTCACTC the “PBM E-score” value was -0.00675. With CGGCGGTC the “PBM E-score” value was -0.269. AGGCTAAC was tested, and the “PBM E-score” value was -0.0455. For GTGTTGTA, the “PBM E-score” value was 0.0125. In the case of CAACACCC, the “PBM E-score” value is reported as 0.0126. With CTCGCCCC the “PBM E-score” value was -0.135. TAGTAAGA was tested, and the “PBM E-score” value was 0.146. ATAATAAG was tested, and the “PBM E-score” value was 0.225. For ATAGCTTG, the “PBM E-score” value was -0.0958. GTAAAATA was tested, and the “PBM E-score” value was 0.1. With ACGCTGAT the “PBM E-score” value was 0.0851. In the case of AACCGGCT, the “PBM E-score” value is reported as 0.0113. CAGTGTCC was tested, and the “PBM E-score” value was -0.152. In the case of CCACCTTA, the “PBM E-score” value is reported as 0.0255. For GTCAGGAA, the “PBM E-score” value was -0.0079. In the case of GCGTCCAC, the “PBM E-score” value is reported as -0.283. For AATTGGTG, the “PBM E-score” value was 0.173. In the case of ACGGCGTC, the “PBM E-score” value is reported as -0.0496. In the case of CGTATAAC, the “PBM E-score” value is reported as 0.043. In the case of ATACTGCC, the “PBM E-score” value is reported as 0.141. With GCTTAAAA the “PBM E-score” value was 0.025. CATTTCCA was tested, and the “PBM E-score” value was 0.112. In the case of AATGAGCG, the “PBM E-score” value is reported as 0.127. For CGATATCC, the “PBM E-score” value was 0.0948. With GGATCTAC the “PBM E-score” value was -0.115. ATACAAGA was tested, and the “PBM E-score” value was 0.0665. With CGATGTAA the “PBM E-score” value was 0.102. With AACTGACC the “PBM E-score” value was -0.149. AACAACCA was tested, and the “PBM E-score” value was 0.231. For GGTATGGA, the “PBM E-score” value was 0.0264. For CTCCATCC, the “PBM E-score” value was -0.174. For ACGCGTAG, the “PBM E-score” value was 0.00813. For CATCACGG, the “PBM E-score” value was 0.025. In the case of CTAAGCAC, the “PBM E-score” value is reported as 0.183. In the case of GACTAGGC, the “PBM E-score” value is reported as -0.137. In the case of AAGGTGCT, the “PBM E-score” value is reported as 0.0441. In the case of CCCAATGA, the “PBM E-score” value is reported as 0.0295. In the case of TCGAAAGA, the “PBM E-score” value is reported as 0.101. In the case of CTCCCTTA, the “PBM E-score” value is reported as -0.217. With CCCATGTC the “PBM E-score” value was -0.138. CCATCCTA was tested, and the “PBM E-score” value was 0.0673. For CGGGCCAC, the “PBM E-score” value was -0.156. For TAGAATCA, the “PBM E-score” value was -0.0766. For ATTAACCC, the “PBM E-score” value was 0.1. ACTAGTGA was tested, and the “PBM E-score” value was -0.158. For CTAAATTA, the “PBM E-score” value was 0.258. For GCAGCCGC, the “PBM E-score” value was -0.083. In the case of GGTCGCCA, the “PBM E-score” value is reported as -0.179. GCTTGGAC was tested, and the “PBM E-score” value was -0.281. In the case of AGTAGCGC, the “PBM E-score” value is reported as 0.0546. With AAAACTTG the “PBM E-score” value was 0.145. CACGGGAC was tested, and the “PBM E-score” value was -0.118. With GCCCAAGC the “PBM E-score” value was -0.0456.
